Measurements reported in US4990430A, “Process for retouching dye images” (Eastman Kodak Company, priority 1989, dated 1991).

What was measured:
[1] = Maximum density (Dmax) of the magenta dye image after E-6 processing of the coated element; settings: Table II; coupler at 1.62 mmol/sq m, processed by Kodak E-6 process
[2] = Washout of the magenta dye image on immersion in aqueous acidic ethanol; settings: Table II; stirred solution of 3 ml 12N HCl, 32 ml H2O and 65 ml ethanol for 3 minutes

**Q.** For `CCOP(=O)(NCCCCCCCCCCC(=O)Nc1c(C)cc(C)c(-c2n[nH]c3c(Cl)c(C(C)(C)C)nn23)c1C)OCC` [Compound 1], which Dmax [1] is on record?
**A.** 0.83

**Q.** What about the “Percent Washout” value [2] of the same compound?
**A.** 54%

**Q.** What does the source list for `CCCS(=O)(=O)NCCS(=O)(=O)CCCCCCCCCCC(=O)Nc1c(C)cc(C)c(-c2n[nH]c3c(Cl)c(C(C)(C)C)nn23)c1C` [Compound 2]?
**A.** Dmax [1]: 1.74; Percent Washout [2]: 86%

**Q.** With `CCOP(=O)(NCCS(=O)(=O)CCCCCCCCCCC(=O)Nc1c(C)cc(C)c(-c2n[nH]c3c(Cl)c(C(C)(C)C)nn23)c1C)OCC` [Compound 3] as the compound, how does the Dmax [1] read?
**A.** 1.06

**Q.** What about the “Percent Washout” value [2] of the same compound?
**A.** 94%

**Q.** For `Cc1cc(C)c(-c2n[nH]c3c(Cl)c(C(C)(C)C)nn23)c(C)c1NC(=O)CCCCCCCCCCNC(=O)C(C)(CO)CO` [Compound 4], which Dmax [1] is on record?
**A.** 1.35

**Q.** What about the “Percent Washout” value [2] of the same compound?
**A.** 89%

**Q.** With `Cc1cc(C)c(-c2n[nH]c3c(Cl)c(C(C)(C)C)nn23)c(C)c1NC(=O)CCCCCOc1ccc(CO)cc1` [Compound 5] as the compound, how does the Dmax [1] read?
**A.** 1.10

**Q.** What about the “Percent Washout” value [2] of the same compound?
**A.** 96%

**Q.** For `CCCCCCC(Oc1ccc(S(=O)(=O)CCO)cc1)C(=O)Nc1c(C)cc(C)c(-c2n[nH]c3c(Cl)c(C(C)(C)C)nn23)c1C` (centres unmarked) [Compound 6], which Dmax [1] is on record?
**A.** 1.10

**Q.** And the “Percent Washout” value [2]?
**A.** 48%

**Q.** Which Dmax [1] does the source give for `CCCCCCCCC(C(=O)Nc1c(C)cc(C)c(-c2n[nH]c3c(Cl)c(C(C)(C)C)nn23)c1C)S(=O)(=O)CCNC(=O)CC` (centres unmarked) [Compound 7] here?
**A.** 0.9

**Q.** What about the “Percent Washout” value [2] of the same compound?
**A.** 81%

**Q.** Which results are given for `CCCCCCCCCCC(Oc1ccc(S(=O)(=O)c2ccc(OCc3ccccc3)cc2)cc1)C(=O)Nc1c(C)cc(C)c(-c2n[nH]c3c(Cl)c(C)nn23)c1C` (centres unmarked) [Compound C-1, reference compound]?
**A.** Dmax [1]: 0.7; Percent Washout [2]: 3%

**Q.** Which Dmax [1] does the source give for `CCC(C)(C)c1ccc(OCC(=O)Nc2cccc(C(=O)NC3=NN(c4c(Cl)cc(Cl)cc4Cl)C(=O)C3)c2)c(C(C)(C)CC)c1` [Compound C-2, reference compound] here?
**A.** 1.6

**Q.** And the “Percent Washout” value [2]?
**A.** 8%

**Q.** Which Dmax [1] does the source give for `Cc1cc(C)c([N+](=O)[O-])c(C)c1-c1n[nH]c2c(Cl)c(C(C)(C)C)nn12` [Compound C-3, reference compound] here?
**A.** 0.5

**Q.** And the “Percent Washout” value [2]?
**A.** 98%
